This note sets out measurements from patent US8889631B2 (The University of Kansas, priority 2008, dated 2014).

The test system of one data set is CHO cells. Briefly: Colocalization of fluorescent compounds and endosomal marker proteins by confocal microscopy. The data set is classed as cell-based, Chinese hamster. The following applies: for colocalization of red fluorescent Compound 2 and green fluorescent Compound 3: Compound 2 (2 μM) and Compound 3 (5 μM) 12 h, conditions that minimally disrupt endosomes.

Data set [1] in a line: general procedure: Fmoc solid-phase peptide synthesis; Rink amide Novagel; HBTU/HOBt/DIEA. The settings on record: whole synthesis.
Data set [2] in a line: general procedure: Fmoc solid-phase peptide synthesis; Rink amide Novagel resin (0.62 mmol/g); HBTU/HOBt/DIEA. The following applies: whole synthesis.

Square brackets hold non-standard residues; d marks the D form. Peptide text beside a SMILES is read from it. * marks the point of attachment. Pentanoyl(5-NH-cholesteryl) = CC(C)CCC[C@@H](C)[C@H]1CC[C@H]2[C@@H]3CC=C4C[C@@H](NCCCCC(=O)*)CC[C@]4(C)[C@H]3CC[C@]12C; X1 = O=C(O)c1c(Cl)cc(C(=O)*)c(Cl)c1-c1c2cc(Cl)c(=O)c(Cl)c-2oc2c(Cl)c(O)c(Cl)cc12; Ahx = NCCCCCC(=O)O

`CC(C)CCC[C@@H](C)[C@H]1CC[C@H]2[C@@H]3CC=C4C[C@@H](NCCCCC(=O)N[C@@H](CCC(=O)O)C(=O)N[C@@H](CCCCNC(=O)c5cc(Cl)c(C(=O)O)c(-c6c7cc(Cl)c(=O)c(Cl)c-7oc7c(Cl)c(O)c(Cl)cc67)c5Cl)C(=O)NCCCCCC(=O)NCCCCCC(=O)N[C@@H](CO)C(=O)N[C@@H](CO)C(=O)N[C@@H](C)C(=O)N[C@@H](Cc5c[nH]c6ccccc56)C(=O)N[C@@H](Cc5c[nH]c6ccccc56)C(=O)N[C@@H](CO)C(=O)N[C@@H](Cc5ccc(O)cc5)C(=O)N[C@@H](Cc5c[nH]c6ccccc56)C(=O)N5CCC[C@H]5C(=O)N5CCC[C@H]5C(=O)N[C@H](C(=O)N[C@@H](C)C(N)=O)C(C)C)CC[C@]4(C)[C@H]3CC[C@]12C` [Compound 2, N-(6-{[6-({N-{5-(3β-Cholest-5-en-3-ylammonio)pentanoyl}-5-oxidanidyl-5-oxidanylidene-L-norvalyl-N^6-[4-carboxy-2,5-dichloro-3-(2,4,5,7-tetrachloro-6-hydroxy-3-oxo-3H-xanthen-9-yl)benzoyl]-L-lysyl}amino)hexanoyl]amino}hexanoyl)-L-seryl-L-seryl-L-alanyl-L-tryptophyl-L-tryptophyl-L-seryl-L-tyrosyl-L-tryptophyl-L-prolyl-L-prolyl-L-valyl-L-alaninamide] ({Pentanoyl(5-NH-cholesteryl)}-EK(X1)[Ahx][Ahx]SSAWWSYWPPVA-NH2): in the data set on CHO cells, the “colocalization of red fluorescent Compound 2 and green fluorescent Compound 3” value is “Essentially complete colocalization of red and green fluorescence in early/recycling endosomes”. Further, in the data set on CHO cells (compound 5 μM 12 h, then transferrin conjugate 610 nM 5 min), the “colocalization with green fluorescent transferrin Alexa Fluor 488 conjugate” value was “Essentially complete colocalization of red and green fluorescence”.
Regarding `CC(C)CCC[C@@H](C)[C@H]1CC[C@H]2[C@@H]3CC=C4C[C@@H](NCCCNC(=O)[C@H](CCC(=O)O)NC(=O)[C@H](CCC(=O)O)NC(=O)CCSSCCNC(=O)c5ccc(-c6c7ccc(=O)cc-7oc7cc(O)ccc67)c(C(=O)O)c5)CC[C@]4(C)[C@H]3CC[C@]12C` [Compound 3, (11S,14S)-11-(2-Carboxylatoethyl)-1-[3-carboxylato-4-(6-oxido-3-oxo-3H-xanthen-9-yl)phenyl]-14-[({3-(3β-cholest-5-en-3-ylammonio)propyl}amino)carbonyl]-1,9,12-trioxo-5,6-dithia-2,10,13-triazaheptadecan-17-oate], the “colocalization of red fluorescent Compound 2 and green fluorescent Compound 3” value in the data set on CHO cells is “Essentially complete colocalization of red and green fluorescence in early/recycling endosomes”. For the same compound, the “colocalization with red fluorescent DiI-LDL (marker of late endosomes and lysosomes)” value with CHO cells (compound 5 μM 12 h, then DiI-LDL 8 nM 5 min) was “distinct red fluorescence”. The “intracellular colocalization with red fluorescent transferrin (marker of early/recycling endosomes)” value in the data set on CHO cells (compound 5 μM 12 h, then Texas Red transferrin 500 nM 5 min) is “essentially complete intracellular colocalization with red fluorescent transferrin protein”.
In data set [1] (scale 0.076 mmol), EE-ε-Ahx-ε-Ahx-SSAWWSYWPPVA showed an isolated mass of 27 mg and an isolated yield of 15.0%.
Consider EK-ε-Ahx-ε-Ahx-SSAWWSYWPPVA, for which the isolated mass in data set [2] came to 7.2 mg. In addition, in data set [2] (scale 0.038 mmol), the isolated yield amounted to 6.6%.
In data set [1] (scale 0.038 mmol), “N-(6-{[6-({N-{5-(3β-Cholest-5-en-3-ylammonio)pentanoyl}-5-oxidanidyl-5-oxidanylidene-L-norvalyl-N^6-[4-carboxy-2,5-dichloro-3-(2,4,5,7-tetrachloro-6-hydroxy-3-oxo-3H-xanthen-9-yl)benzoyl]-L-lysyl}amino)hexanoyl]amino}hexanoyl)-L-seryl-L-seryl-L-alanyl-L-tryptophyl-L-tryptophyl-L-seryl-L-tyrosyl-L-tryptophyl-L-prolyl-L-prolyl-L-valyl-L-alaninamide” yielded an isolated mass of 12 mg and an isolated yield of 13.6%.
With “N-Acetyl-L-seryl-L-seryl-L-alanyl-L-tryptophyl-L-tryptophyl-L-seryl-L-tyrosyl-L-tryptophyl-L-prolyl-L-prolyl-L-valyl-L-alaninamide”, in data set [1] (scale 0.032 mmol), the isolated mass is listed as 8.3 mg and the isolated yield came to 18.0%.
